Data as given in PubChem BioAssay AID720505 (Drosophila RNAi Screening Center, 2013).
Aim: 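Knock-downs that reduce calcium influx once internal stores are emptied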 (primary screen). Cells: Drosophila S2R+ cells. Knock-down reagent: long dsRNA against Drosophila genes. Treatment: thapsigargin (2 µM) in calcium-free buffer to empty internal stores, then 2 mM calcium added back. Measured: 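Stores emptied by 2 µM thapsigargin without calcium, then 2 mM calcium re-added; fluo-4 fluorescence followed by FLIPR in 384-well plates, per-well averaged endpoint, raw; two screen passes, some wells retested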. Scale: calcium signal and retest calcium signal: higher = more calcium entry after store depletion. Active means: 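Knock-downs counted as hits when calcium entry dropped relative to STIM1 positive and Rho1 negative controls present on each plate; roughly 1500 genes called, with reductions of differing size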. Meaning of the calls: active = called as lowering calcium entry; inactive = not called.
The deposit covers about 20,000 reagents; shown is an unselected part of those with a known target gene and a result. Over the whole deposit, about 2,100 (10%) are marked active. 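Raw plate signals without normalisation; calls rest on control-based scores that were not deposited; replicate 2 separates called from uncalled poorly.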 Names joined by + are all predicted targets of the reagent. Not given: the amount of reagent, the time to read-out.

Target gene | amplicon | calcium signal, replicate 1 | calcium signal, replicate 2 | retest calcium signal, replicate 1 | retest calcium signal, replicate 2 | activity call
Rab3-GEF | DRSC19954 | 64.5 | 130 | – | – | active
Rab3-GEF | DRSC19955 | 88.2 | 112 | – | – | inactive
Rab3-GEF | DRSC19956 | 81.2 | 151 | – | – | inactive
Clc | DRSC11116 | 111 | 80.3 | – | – | inactive
CG14903 | DRSC15024 | 98.9 | 83.8 | – | – | inactive
CG14860 | DRSC14983 | 112 | 174 | – | – | inactive
CG18622 | DRSC15360 | 132 | 144 | – | – | inactive
CG31612 | DRSC03697 | 59 | 98 | 76.6 | 93.1 | active
CG31612 | DRSC03698 | 105 | 84.5 | – | – | inactive
CG2926 | DRSC12321 | 89 | 115 | – | – | inactive
CG3104 | DRSC00567 | 211 | 92.1 | – | – | inactive
Alg14 | DRSC19983 | 72.8 | 133 | – | – | active
Hip1 | DRSC09812 | 135 | 77.1 | – | – | inactive
CG11672 | DRSC14344 | 77.6 | 119 | – | – | active
CG17928 | DRSC02644 | 74 | 156 | – | – | active
Xpac | DRSC18730 | 193 | 112 | – | – | inactive
CG42260 | DRSC04172 | 100 | 145 | – | – | inactive
CG42260 | DRSC04385 | 123 | 112 | – | – | inactive
CG14282 | DRSC14763 | 130 | 127 | – | – | inactive
okr | DRSC00834 | 144 | 241 | – | – | inactive
CR9337 | DRSC03212 | 91.3 | 81.4 | – | – | inactive
modSP | DRSC16726 | 125 | 137 | – | – | inactive
modSP | DRSC16857 | 103 | 112 | – | – | inactive
modSP | DRSC21489 | 126 | 99.4 | – | – | inactive
PhKgamma | DRSC20268 | 172 | 114 | – | – | inactive
CG31121 | DRSC15361 | 146 | 116 | – | – | inactive
CG31121 | DRSC15363 | 88.5 | 98.5 | – | – | active
lva | DRSC18403 | 69.4 | 132 | – | – | inactive
CG12129 | DRSC06105 | 176 | 118 | – | – | inactive
CG3690 | DRSC18170 | 103 | 170 | – | – | inactive
CG3690 | DRSC18641 | 87.3 | 140 | – | – | inactive
CG14780 | DRSC18566 | 68.3 | 139 | – | – | inactive
Gr98b | DRSC21675 | 226 | 122 | – | – | inactive
Nup205 | DRSC19432 | 112 | 96.2 | – | – | inactive
mRpS17 | DRSC04463 | 89.2 | 148 | – | – | inactive
Prp4k | DRSC08144 | 168 | 134 | – | – | inactive
CG16852 | DRSC01876 | 123 | 127 | – | – | inactive
Rcd-1 | DRSC19569 | 76.3 | 234 | – | – | active
Nse1 | DRSC02147 | 85 | 117 | – | – | inactive
mRpL16 | DRSC18550 | 110 | 85.8 | – | – | inactive
Patsas | DRSC02975 | 118 | 92.6 | – | – | inactive
kraken | DRSC00824 | 124 | 141 | – | – | inactive
Tmem214 | DRSC02924 | 178 | 178 | – | – | inactive
Tmem214 | DRSC02925 | 158 | 141 | – | – | inactive
Mocs2A + Mocs2B | DRSC13697 | 74.5 | 113 | – | – | inactive
Mocs2A + Mocs2B | DRSC14219 | 253 | 175 | – | – | inactive
Cpr50Ca | DRSC05454 | 98.3 | 124 | – | – | inactive
Cpr50Ca | DRSC06372 | 120 | 220 | – | – | inactive
Cpr50Ca | DRSC06375 | 105 | 184 | – | – | inactive
CG6041 | DRSC18396 | 217 | 154 | – | – | inactive
CG4287 | DRSC15559 | 145 | 139 | – | – | inactive
ppk26 | DRSC10991 | 62 | 92.4 | – | – | inactive
apt | DRSC04671 | 101 | 90.5 | – | – | inactive
apt | DRSC23278 | 104 | 125 | – | – | inactive
CG14313 | DRSC14792 | 323 | 179 | – | – | inactive
CG3777 | DRSC18489 | 182 | 140 | – | – | inactive
CG30159 | DRSC04981 | 183 | 106 | – | – | inactive
CG7497 | DRSC10857 | 147 | 120 | – | – | inactive
CG13955 | DRSC06443 | 141 | 99.2 | – | – | inactive
ksh | DRSC19554 | 163 | 117 | – | – | inactive
PIG-Wb | DRSC08526 | 95 | 85.5 | – | – | inactive
Nnp-1 | DRSC02165 | 78.4 | 75 | – | – | active
Ciz1 | DRSC09675 | 82.5 | 97.6 | – | – | inactive
CheB38b | DRSC22874 | 107 | 139 | – | – | inactive
CG10086 | DRSC14183 | 88.1 | 195 | – | – | inactive
CG1622 | DRSC19745 | 108 | 136 | – | – | inactive
CG42685 | DRSC01971 | 75.5 | 114 | 164 | 135 | active
Or2a | DRSC18690 | 120 | 110 | – | – | inactive
h-cup + Rbp | DRSC14990 | 106 | 101 | – | – | inactive
CG7409 | DRSC10842 | 84.3 | 74.9 | – | – | inactive
CG10257 | DRSC05985 | 113 | 195 | – | – | inactive
Aldh | DRSC02717 | 135 | 116 | – | – | inactive
PGRP-SB1 | DRSC11090 | 78 | 179 | – | – | inactive
prd1 | DRSC15227 | 134 | 90.2 | – | – | inactive
Alp4 | DRSC14116 | 172 | 123 | – | – | inactive
babo | DRSC07581 | 92.4 | 96.2 | – | – | inactive
Cht8 | DRSC04546 | 42.6 | 163 | – | – | inactive
CG14624 | DRSC18634 | 154 | 108 | – | – | inactive
CG42304 + Snup | DRSC08276 | 66.8 | 107 | – | – | active
CG42304 + Snup | DRSC08277 | 70.4 | 88.4 | – | – | inactive
CG42304 + Snup | DRSC22781 | 144 | 140 | – | – | inactive
hkb | DRSC12377 | 104 | 144 | 153 | 133 | inactive
Tollo | DRSC11305 | 90.4 | 144 | – | – | inactive
